Measured values published in ChEMBL document CHEMBL4219137, “A novel templates of piperazinyl-1,2-dihydroquinoline-3-carboxylates: Synthesis, anti-microbial evaluation and molecular docking studies” (Bioorg Med Chem Lett, 2018).
In brackets after ≈: the same amount, converted by molar mass.

System: Pseudomonas aeruginosa
Test: microbe, parasite or virus in culture
Conditions: MTCC 2453, 24 h

For `O=C(O)c1cn(C2CC2)c2cc(N3CCNCC3)c(F)cc2c1=O` [CIPROFLOXACIN], the MIC was 0.9 mg/L (≈ 2.72 µM).
